Results deposited as PubChem BioAssay AID743121 (NCATS, 2013).

- Screen: 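Partners whose loss is lethal together with topoisomerase I blockade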 (primary screen)
- Cell system: MDA-MB-231 cells, a human breast cancer line
- Reagent: single siRNA against human genes, 20 nM siRNA (0.8 pmol per well)
- Timing: 120 h (drug added 48 h after transfection, read 72 h later)
- Conditions: camptothecin 20 nM (about EC30) for 72 h; vehicle 0.1% DMSO in parallel plates
- Read-out: 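CellTiter-Glo ATP signal, scaled to control siRNA as percent viability; sensitisation given as log2 of untreated divided by camptothecin-treated viability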
- Scale: log2 vehicle/camptothecin viability: higher = stronger sensitisation to camptothecin; viability with camptothecin: higher = more viable cells
- Units: viability with camptothecin in % of control
- Call rule: 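Each gene scored by redundant siRNA activity (RSA) over its individual siRNA ratios; a gene is called active at p < 0.001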
In all, the deposit lists about 26,000 reagents; this is a part drawn at random. Over the whole deposit, 167 (0.63%) were called active. 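Calls are per gene from RSA p-values that are not deposited; an individual active-marked siRNA can sensitise only weakly.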 The numbers tell different reagents against one gene apart. Not all columns of the deposit are shown.

Against PLXNA2 (plexin A2) #1, the entry reads log2 vehicle/camptothecin viability -0.33; viability with camptothecin 81.7; inactive.
PLXNA2 (plexin A2) #2 showed log2 vehicle/camptothecin viability -0.353; viability with camptothecin 119; inactive.
For PLXNA2 (plexin A2) #3, the values are log2 vehicle/camptothecin viability -0.312; viability with camptothecin 137; inactive.
Against PLXNA2 (plexin A2) #4, the entry reads log2 vehicle/camptothecin viability 0.0938; viability with camptothecin 87.1; inactive.
MYLK4 (myosin light chain kinase family member 4) #1 gave log2 vehicle/camptothecin viability 0.062; viability with camptothecin 74; inactive.
For MYLK4 (myosin light chain kinase family member 4) #2, the entry reads log2 vehicle/camptothecin viability -0.0546; viability with camptothecin 70.2; inactive.
After knock-down of MYLK4 (myosin light chain kinase family member 4) #3, the screen gave log2 vehicle/camptothecin viability -0.419; viability with camptothecin 90.4; inactive.
For MYLK4 (myosin light chain kinase family member 4) #4, the values are log2 vehicle/camptothecin viability -0.375; viability with camptothecin 108; inactive.
Against KALRN (kalirin RhoGEF kinase) #1, the entry reads log2 vehicle/camptothecin viability -0.104; viability with camptothecin 81.6; inactive.
With knock-down of KALRN (kalirin RhoGEF kinase) #2 the results were log2 vehicle/camptothecin viability -0.474; viability with camptothecin 87.2; inactive.
Depletion of KALRN (kalirin RhoGEF kinase) #3 gave: log2 vehicle/camptothecin viability -0.177; viability with camptothecin 118; inactive.
KALRN (kalirin RhoGEF kinase) #4 scored log2 vehicle/camptothecin viability -0.408; viability with camptothecin 107; inactive.
KALRN (kalirin RhoGEF kinase) #5 scored log2 vehicle/camptothecin viability 0.693; viability with camptothecin 30.7; inactive.
With knock-down of KALRN (kalirin RhoGEF kinase) #6, the record shows log2 vehicle/camptothecin viability -0.115; viability with camptothecin 98.1; inactive.
With knock-down of KALRN (kalirin RhoGEF kinase) #7, the record shows log2 vehicle/camptothecin viability -0.19; viability with camptothecin 105; inactive.
With knock-down of KALRN (kalirin RhoGEF kinase) #8, the record shows log2 vehicle/camptothecin viability -0.153; viability with camptothecin 94.5; inactive.
With knock-down of KALRN (kalirin RhoGEF kinase) #9, the record shows log2 vehicle/camptothecin viability -0.291; viability with camptothecin 75.1; inactive.
Depletion of KALRN (kalirin RhoGEF kinase) #10 came out at: log2 vehicle/camptothecin viability -0.0972; viability with camptothecin 113; inactive.
KALRN (kalirin RhoGEF kinase) #11 scored log2 vehicle/camptothecin viability -0.253; viability with camptothecin 94.2; inactive.
Depletion of NSMCE1 (NSE1 component of SMC5/6 complex) #1 gave: log2 vehicle/camptothecin viability -0.105; viability with camptothecin 77.8; inactive.
NSMCE1 (NSE1 component of SMC5/6 complex) #2 scored log2 vehicle/camptothecin viability -0.13; viability with camptothecin 108; inactive.
Against NSMCE1 (NSE1 component of SMC5/6 complex) #3, the values are log2 vehicle/camptothecin viability -0.555; viability with camptothecin 43.1; inactive.
NSMCE1 (NSE1 component of SMC5/6 complex) #4 showed log2 vehicle/camptothecin viability -0.192; viability with camptothecin 57.7; inactive.
Knock-down of HCST (hematopoietic cell signal transducer) #1 gave: log2 vehicle/camptothecin viability -0.205; viability with camptothecin 53.8; inactive.
Against HCST (hematopoietic cell signal transducer) #2, the values are log2 vehicle/camptothecin viability -0.159; viability with camptothecin 69.7; inactive.
For HCST (hematopoietic cell signal transducer) #3, the values are log2 vehicle/camptothecin viability -0.144; viability with camptothecin 92.1; inactive.
For HCST (hematopoietic cell signal transducer) #4 the deposit lists log2 vehicle/camptothecin viability -0.178; viability with camptothecin 29.5; inactive.
PPM1B (protein phosphatase, Mg2+/Mn2+ dependent 1B) #1 scored log2 vehicle/camptothecin viability -0.288; viability with camptothecin 122; inactive.
With knock-down of PPM1B (protein phosphatase, Mg2+/Mn2+ dependent 1B) #2, the screen gave log2 vehicle/camptothecin viability -0.143; viability with camptothecin 101; inactive.
PPM1B (protein phosphatase, Mg2+/Mn2+ dependent 1B) #3 gave log2 vehicle/camptothecin viability -0.151; viability with camptothecin 85.3; inactive.
Against PPM1B (protein phosphatase, Mg2+/Mn2+ dependent 1B) #4, the entry reads log2 vehicle/camptothecin viability -0.0991; viability with camptothecin 110; inactive.
For PPM1B (protein phosphatase, Mg2+/Mn2+ dependent 1B) #5, the values are log2 vehicle/camptothecin viability -0.362; viability with camptothecin 86.9; inactive.
Silencing of PPM1B (protein phosphatase, Mg2+/Mn2+ dependent 1B) #6 resulted in: log2 vehicle/camptothecin viability 0.129; viability with camptothecin 63.8; inactive.
Knock-down of PPM1B (protein phosphatase, Mg2+/Mn2+ dependent 1B) #7 resulted in: log2 vehicle/camptothecin viability -0.183; viability with camptothecin 90; inactive.
With knock-down of PPM1B (protein phosphatase, Mg2+/Mn2+ dependent 1B) #8 the results were log2 vehicle/camptothecin viability -0.345; viability with camptothecin 108; inactive.
MUC3A (mucin 3A, cell surface associated) #1 showed log2 vehicle/camptothecin viability -0.575; viability with camptothecin 77.9; inactive.
Against MUC3A (mucin 3A, cell surface associated) #2, the values are log2 vehicle/camptothecin viability -0.596; viability with camptothecin 86.8; inactive.
MUC3A (mucin 3A, cell surface associated) #3 scored log2 vehicle/camptothecin viability -0.258; viability with camptothecin 92.8; inactive.
For NPFFR1 (neuropeptide FF receptor 1) #1, the values are log2 vehicle/camptothecin viability -0.28; viability with camptothecin 64.5; inactive.
After knock-down of NPFFR1 (neuropeptide FF receptor 1) #2, the record shows log2 vehicle/camptothecin viability 0.131; viability with camptothecin 81.4; inactive.
Silencing of NPFFR1 (neuropeptide FF receptor 1) #3 resulted in: log2 vehicle/camptothecin viability -0.0887; viability with camptothecin 17.8; inactive.
For NPFFR1 (neuropeptide FF receptor 1) #4, the entry reads log2 vehicle/camptothecin viability -0.0431; viability with camptothecin 66.7; inactive.
For USP20 (ubiquitin specific peptidase 20) #1, the values are log2 vehicle/camptothecin viability -0.431; viability with camptothecin 103; inactive.
With knock-down of USP20 (ubiquitin specific peptidase 20) #2, the screen gave log2 vehicle/camptothecin viability 0.155; viability with camptothecin 51.3; inactive.
Knock-down of USP20 (ubiquitin specific peptidase 20) #3 came out at: log2 vehicle/camptothecin viability 0.18; viability with camptothecin 92.6; inactive.
USP20 (ubiquitin specific peptidase 20) #4 showed log2 vehicle/camptothecin viability -0.187; viability with camptothecin 66.3; inactive.
